From ChEMBL document CHEMBL3988442, “University of Dundee, Small-Polar-MMV Screening Library” (2021).

By UniProt entry, the sequences of proteins in these tests, tags left out.
UniProt P9WNZ1, whole entry: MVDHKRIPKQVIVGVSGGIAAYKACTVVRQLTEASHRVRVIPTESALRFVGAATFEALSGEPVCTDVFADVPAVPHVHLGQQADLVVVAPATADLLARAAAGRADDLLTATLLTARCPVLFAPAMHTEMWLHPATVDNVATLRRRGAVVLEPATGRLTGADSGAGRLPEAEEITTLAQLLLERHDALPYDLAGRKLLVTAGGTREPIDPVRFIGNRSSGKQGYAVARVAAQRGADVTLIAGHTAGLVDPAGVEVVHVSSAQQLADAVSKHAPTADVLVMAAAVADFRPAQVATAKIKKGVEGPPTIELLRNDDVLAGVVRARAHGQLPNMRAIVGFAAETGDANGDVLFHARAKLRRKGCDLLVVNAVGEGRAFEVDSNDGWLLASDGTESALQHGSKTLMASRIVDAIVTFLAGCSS

A: 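Enzyme assay of CoaBC with a phosphate dye (Biomol Green) read at 650 nm. Target: Coenzyme A biosynthesis protein CoaBC, Mycobacterium tuberculosis (UniProt P9WNZ1). Tested at 30 µM. Direction is inferred from only a few compounds that gave an IC50; most scored high, so higher reads as stronger inhibition. Most strong results did not repeat in a second test. Size under these conditions: about 67,000 compounds, about 40 of them at 50% or above in at least one test.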
B: 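Cell assay of Leishmania donovani living inside macrophages; the read-out is not stated. Compounds at 30 µM. The record gives no direction; compounds that gave an IC50 in retests scored well above the rest, so higher reads as stronger inhibition. Of about 69,000 compounds tested this way, about 1,000 (1.5%) reached 50% or more in at least one test.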

Values are the deposited “Percent Effect”, in %.
How 0% and 100% were set is not recorded. Most values in the screen are low, and negative values occur.
This is an unselected part of the compounds tested.
Two or more numbers in one place are separate tests of the same structure; such repeats can differ widely.
A dash means the value is not listed here; it may have been measured.

SMILES,A,B
O=S(=O)(c1cccc(F)c1)N1C[C@@H]2CC[C@H](C1)N(Cc1ccccc1)C2,-28.6,-
Cc1ccc(OCCNc2cccc(C(=O)N3CCOCC3)c2)cc1,0.2538,19.35
CCOC1CCN(C(=O)NCc2ccc(CN3CCOCC3)cc2)CC1,0.2457,18.19
NC(=O)CN1CC[C@@]2(O)CCCC[C@H]2[C@@H]1c1ccc2c(c1)OCO2,-1.205,-
Cc1ccc(C(C(=O)NCCc2nc(C)cc(=O)[nH]2)N(C)C)cc1 (centres unmarked),-0.8485,10.85
O=C(COCC1CC1)N1CCN(C(=O)Cc2ccccn2)CC1,3.733,5.833
Cc1cnn(CC2CCCN2C(=O)CCc2nc3ccccc3[nH]2)c1 (centres unmarked),-2.314,18.26
O[C@@]1(CNCCCOc2cccnc2)CCCN2CCCC[C@@H]21,-0.8696,-
[H][C@]12CCN(c3ncccn3)CC[C@@]1([H])S(=O)(=O)N(CCOC)C2,-,13.55
Cl.Cn1ccnc1N1CCN(C(=O)Cc2ccccc2)CC1,-,-2.682
Cc1ncsc1CN1Cc2cnn(C)c2C(COCC2CC2)C1.O=C(O)C(F)(F)F.O=C(O)C(F)(F)F (centres unmarked),-,-7.405 & -6.574
Cc1cc(NC(=O)NCc2ccc(C)s2)no1,3.481,21.95
CNC(=O)C1(N2CCC[C@H]2C(=O)NC2CC2)CCCCC1.Cl,-,-12.53
COc1ccc(-n2cc(CNC(=O)c3ccccn3)nn2)cc1,6.214,15.28
CC(C)n1nc(CN(C)C)c2c1CN(C(=O)CC1CC1)CC2.O=C(O)C(F)(F)F,-,26.89
COCC(NC(=O)NCc1cccc(C#N)c1)c1ccco1 (centres unmarked),2.174,13.13
CCn1c(CN2CCN(CC(N)=O)CC2)nc2c(F)cccc21,3.723,35.65
Cn1ccnc1CN1C[C@H](N2CCOCC2)[C@@H]2OCCC[C@@H]21,-21.67,-
COc1ccc(CN2CCOC3(CCCN(c4cnccn4)C3)C2)cc1.O=C(O)C(F)(F)F.O=C(O)C(F)(F)F (centres unmarked),-,9.147
N#Cc1cccnc1N1CCN(C(=O)c2cccs2)CC1,-5.882,11.58
[H][C@@]12CCN(S(C)(=O)=O)[C@]1([H])CC[C@H](C(=O)NCc1ccco1)O2,-,16.79
O=C(c1ccnc(NC2CC2)c1)N1CCCC1c1cccc(Br)c1 (centres unmarked),2.913,-11.57
CCn1cnnc1C1CCN(C(=O)CC(C)n2cccc2)CC1 (centres unmarked),11.93,-0.6381
CN(C)C(=O)CN1C[C@H]2CN(Cc3cccc(F)c3)C(=O)[C@H]2C1,3.448,-
CCc1nnc(Nc2cccc(C3CCN(C(=O)CNC)CC3)n2)s1,-0.3717,-5.612
O=C(NCc1nnc2n1CCCCC2)N1CCc2ccccc2C1,-9.92,-4.93
Cc1ccc(N2CC[C@H](OCC3CC3)[C@@H]2Cc2cccnc2)nn1.O=C(O)C(F)(F)F,-,11.47
Cc1noc(CN(CCc2ccco2)Cc2cccc(C#N)c2)n1,-4.277,30.38
CCCc1nnc(N2CCN(c3ccccc3Cl)CC2)o1,9.428,16.03
CCNC(=O)CN1CCC(OCC2CCCO2)CC1 (centres unmarked),-7.393,5.143
CC(C)CN1CCC2(CC1)C(=O)Nc1ccc(C(=O)NC(C)C)cc12.O=C(O)C(F)(F)F,-,-1.007
CC(=O)N(Cc1ncc(C)o1)C1CCN(Cc2csc(C)n2)C1 (centres unmarked),2.35,39.36
O=C(c1cccc2c1OCO2)N1CCCC(n2ccnc2)C1 (centres unmarked),4.845,-0.6733
O=C(Cn1ccc(-c2ccccc2)n1)N1CCN(C(=O)C2CC2)CC1,1.789,31.35
O=C(COC1CCCC1)NCCc1nc(-c2ccccn2)cs1,2.103,6.362
O=C(CC1CCN(c2cccnn2)CC1)NCCO,-1.942,5.103
CC(C)c1noc(C(C)N2CCN(CCCN3CCCC3=O)CC2)n1 (centres unmarked),6.798,16.75
CCCNC(c1cccnc1)c1ccc(F)c(C)c1 (centres unmarked),3.924,-
Cc1nn(C)c(N2CCOCC2)c1CNC1CCCCNC1=O (centres unmarked),-3.125,17.32
CC(=O)N1CCCC1c1nccnc1Nc1cccc(C)n1 (centres unmarked),-3.627,13.89
CC(=O)NCC(=O)Nc1cc(C)n(-c2ccc(Cl)cc2Cl)n1,0.994,5.702
Cc1ccc(C(O)CN2CCN(Cc3nccn3C)CC2)cc1C (centres unmarked),3.916,1.335
CC(C)(O)CSCCNC(=O)c1ccc(F)cc1Cl,3.178,13.13
O=C(Nc1nccs1)c1csc(NC2CCCC2)n1,-20.31,48.24
N#Cc1c(N)nc2c(c1-c1cnc(N3CCCC3)nc1)COCC2,-3.038,-2.667
Cn1ccc(C(=O)N2CCOC3(COCCN(CC4CC4)C3)C2)n1 (centres unmarked),-2.788,-
COc1cccc(C2CCCN2C(=O)c2ccc(=O)n(C)c2)c1 (centres unmarked),5.04,23.8
CSc1cccc(CN2CCn3nc(CNC(C)=O)cc3C2)c1,2.658,1.257
O=C(c1cnc(O)c(Cl)c1)N1CCCC(c2nccs2)C1 (centres unmarked),1.435,16.36
CN(C)C(=O)N1C[C@@H]2CC[C@H](C1)N(Cc1nnc(-c3ccco3)o1)C2,-3.373,-
Cc1cccc(CN2C(=O)CCC23CCN(C(=O)NC(C)C)CC3)n1,0.7059,-
O=C(CCC1CCCO1)N1CCc2nc(-c3cnccn3)nc(O)c2C1 (centres unmarked),0.9804,-19.22
Cc1cccc(C(=O)N2CC[C@]3(C[C@H](OCc4ccccn4)CO3)C2)c1,4,-
Cc1cc(N)nc(SC2CCN(c3ccccc3)C2=O)n1 (centres unmarked),0,4.112
O=C(O)C(F)(F)F.[H][C@@]12CCN(c3nnc(C)s3)C[C@@]1([H])O[C@@H](C(=O)N(C)C)C2,-,32.34

Some entries from above, unchanged:

* Cc1cc(NC(=O)NCc2ccc(C)s2)no1 : A: 3.481%; B: 21.95%
* O=C(COC1CCCC1)NCCc1nc(-c2ccccn2)cs1 : A: 2.103%; B: 6.362%
* Cc1cccc(C(=O)N2CC[C@]3(C[C@H](OCc4ccccn4)CO3)C2)c1 : A: 4%
* Cc1ncsc1CN1Cc2cnn(C)c2C(COCC2CC2)C1.O=C(O)C(F)(F)F.O=C(O)C(F)(F)F (centres unmarked) : B: -7.405% & -6.574%
* CCc1nnc(Nc2cccc(C3CCN(C(=O)CNC)CC3)n2)s1 : A: -0.3717%; B: -5.612%
* Cc1ccc(C(C(=O)NCCc2nc(C)cc(=O)[nH]2)N(C)C)cc1 (centres unmarked) : A: -0.8485%; B: 10.85%